Changes are numbered by the printed parent chain. Names and notes keep the numbering of the source. These are yes or no findings as the source states them, for the method shown. In cells and extracts the contact can be indirect. Some results given as binding are weak or reduced against the parent protein; the word gives no strength. For some assays here: Sequences can lack the tags named with a protein. One block for each molecule: values may come before it.
How the values were obtained:
[1] = molecular target: T1, HA-Amot-p130 (mouse (by the paper's numbering: Ser176 in mouse, Ser175 in human)) (UniProt Q8VHG2); assay: co-IP; HEK293-shAmot cells co-transfected with an Amot-p130 allele (WT, S176A, S176E or PY motif mutants) and tagged partners; total RIPA lysate, IP with tag or protein antibodies overnight, immunoblot
T1 sequence: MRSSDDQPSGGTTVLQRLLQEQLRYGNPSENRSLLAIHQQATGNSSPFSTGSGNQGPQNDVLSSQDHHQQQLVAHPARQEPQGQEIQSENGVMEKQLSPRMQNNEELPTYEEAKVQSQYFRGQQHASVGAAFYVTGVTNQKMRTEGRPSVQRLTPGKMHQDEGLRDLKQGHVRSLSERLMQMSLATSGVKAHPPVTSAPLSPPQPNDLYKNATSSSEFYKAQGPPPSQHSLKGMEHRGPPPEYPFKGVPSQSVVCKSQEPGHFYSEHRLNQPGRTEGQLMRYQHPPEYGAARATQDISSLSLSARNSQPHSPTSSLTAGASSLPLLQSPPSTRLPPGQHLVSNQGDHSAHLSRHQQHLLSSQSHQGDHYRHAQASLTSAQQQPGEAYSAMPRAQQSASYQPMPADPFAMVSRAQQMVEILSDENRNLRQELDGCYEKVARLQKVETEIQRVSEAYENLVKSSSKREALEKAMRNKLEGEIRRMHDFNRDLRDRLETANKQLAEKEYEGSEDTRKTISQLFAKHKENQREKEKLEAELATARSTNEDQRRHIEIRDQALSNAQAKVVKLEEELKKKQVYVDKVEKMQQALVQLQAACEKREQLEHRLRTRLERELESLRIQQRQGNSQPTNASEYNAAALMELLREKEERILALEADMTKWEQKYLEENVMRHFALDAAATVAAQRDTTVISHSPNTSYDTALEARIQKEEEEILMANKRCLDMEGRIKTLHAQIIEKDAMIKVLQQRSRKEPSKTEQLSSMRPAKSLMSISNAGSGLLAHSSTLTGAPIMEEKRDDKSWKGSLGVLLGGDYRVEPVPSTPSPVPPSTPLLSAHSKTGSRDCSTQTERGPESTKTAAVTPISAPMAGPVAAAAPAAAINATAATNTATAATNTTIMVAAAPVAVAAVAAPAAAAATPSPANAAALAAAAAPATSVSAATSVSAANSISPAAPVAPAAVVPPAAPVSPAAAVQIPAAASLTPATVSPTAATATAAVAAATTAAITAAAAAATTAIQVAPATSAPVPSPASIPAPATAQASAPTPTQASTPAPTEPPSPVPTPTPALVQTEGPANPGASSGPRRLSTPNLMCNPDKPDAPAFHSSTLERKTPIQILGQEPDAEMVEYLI

The chains behind the UniProt entries cited, without tags or fusion partners.
UniProt Q8NI35: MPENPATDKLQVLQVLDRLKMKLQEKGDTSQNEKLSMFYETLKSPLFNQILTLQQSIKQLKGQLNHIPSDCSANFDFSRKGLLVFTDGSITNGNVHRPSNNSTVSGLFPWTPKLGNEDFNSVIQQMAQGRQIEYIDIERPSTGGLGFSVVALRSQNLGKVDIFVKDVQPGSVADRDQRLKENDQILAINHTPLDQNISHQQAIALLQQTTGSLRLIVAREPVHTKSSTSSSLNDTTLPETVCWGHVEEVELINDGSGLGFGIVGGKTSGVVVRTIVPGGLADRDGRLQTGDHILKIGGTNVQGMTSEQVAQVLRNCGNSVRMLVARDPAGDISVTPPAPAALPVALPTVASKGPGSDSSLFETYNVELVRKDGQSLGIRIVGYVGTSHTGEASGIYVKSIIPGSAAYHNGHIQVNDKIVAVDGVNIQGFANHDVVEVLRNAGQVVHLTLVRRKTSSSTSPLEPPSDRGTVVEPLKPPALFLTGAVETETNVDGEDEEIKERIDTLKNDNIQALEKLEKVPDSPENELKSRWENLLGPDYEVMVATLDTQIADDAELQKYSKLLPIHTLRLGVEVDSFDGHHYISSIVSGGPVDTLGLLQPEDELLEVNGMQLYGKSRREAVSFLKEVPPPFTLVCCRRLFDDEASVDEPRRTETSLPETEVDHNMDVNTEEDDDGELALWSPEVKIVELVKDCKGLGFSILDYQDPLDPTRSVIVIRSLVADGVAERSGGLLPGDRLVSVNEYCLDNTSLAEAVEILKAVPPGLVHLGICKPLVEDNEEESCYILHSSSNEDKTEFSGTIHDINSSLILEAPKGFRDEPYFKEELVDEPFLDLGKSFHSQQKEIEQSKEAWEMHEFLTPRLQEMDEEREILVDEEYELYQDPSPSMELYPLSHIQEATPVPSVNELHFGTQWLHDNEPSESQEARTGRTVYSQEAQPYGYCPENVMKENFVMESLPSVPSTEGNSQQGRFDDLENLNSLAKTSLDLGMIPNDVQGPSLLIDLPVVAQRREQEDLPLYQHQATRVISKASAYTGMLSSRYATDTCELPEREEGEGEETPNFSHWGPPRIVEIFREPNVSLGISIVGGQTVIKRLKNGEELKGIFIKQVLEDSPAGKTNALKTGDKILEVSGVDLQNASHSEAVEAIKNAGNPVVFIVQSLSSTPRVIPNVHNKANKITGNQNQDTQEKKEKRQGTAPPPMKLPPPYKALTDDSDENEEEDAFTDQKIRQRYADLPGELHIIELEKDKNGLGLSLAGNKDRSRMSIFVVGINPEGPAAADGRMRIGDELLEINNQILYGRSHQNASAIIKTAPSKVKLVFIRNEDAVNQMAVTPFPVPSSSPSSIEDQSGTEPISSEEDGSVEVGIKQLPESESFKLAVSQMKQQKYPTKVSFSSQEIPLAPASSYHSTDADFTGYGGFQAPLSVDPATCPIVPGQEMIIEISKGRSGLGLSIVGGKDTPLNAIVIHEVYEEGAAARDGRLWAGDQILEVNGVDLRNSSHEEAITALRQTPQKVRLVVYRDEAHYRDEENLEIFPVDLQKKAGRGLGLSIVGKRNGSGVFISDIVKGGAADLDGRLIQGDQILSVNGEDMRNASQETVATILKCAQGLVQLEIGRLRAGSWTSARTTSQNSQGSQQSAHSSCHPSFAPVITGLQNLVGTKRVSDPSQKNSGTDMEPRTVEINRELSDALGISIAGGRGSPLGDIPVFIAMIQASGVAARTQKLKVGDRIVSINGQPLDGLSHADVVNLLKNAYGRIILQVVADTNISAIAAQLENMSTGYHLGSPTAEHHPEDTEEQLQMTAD
UniProt P35240: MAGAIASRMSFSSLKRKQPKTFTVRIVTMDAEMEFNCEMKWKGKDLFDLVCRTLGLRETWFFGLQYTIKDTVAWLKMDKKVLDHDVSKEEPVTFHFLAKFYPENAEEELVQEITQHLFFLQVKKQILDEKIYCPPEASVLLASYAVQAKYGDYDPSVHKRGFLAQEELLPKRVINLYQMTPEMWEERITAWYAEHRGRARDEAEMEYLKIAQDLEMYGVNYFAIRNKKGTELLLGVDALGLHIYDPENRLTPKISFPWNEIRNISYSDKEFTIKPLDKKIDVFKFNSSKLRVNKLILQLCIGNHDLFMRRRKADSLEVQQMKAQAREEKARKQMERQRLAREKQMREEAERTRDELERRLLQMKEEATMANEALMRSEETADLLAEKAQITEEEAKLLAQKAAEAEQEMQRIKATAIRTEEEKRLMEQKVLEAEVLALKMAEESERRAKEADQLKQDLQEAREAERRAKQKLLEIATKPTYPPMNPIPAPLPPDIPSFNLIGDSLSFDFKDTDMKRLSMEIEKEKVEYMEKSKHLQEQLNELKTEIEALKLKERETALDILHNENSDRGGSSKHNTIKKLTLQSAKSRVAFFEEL
UniProt P46937: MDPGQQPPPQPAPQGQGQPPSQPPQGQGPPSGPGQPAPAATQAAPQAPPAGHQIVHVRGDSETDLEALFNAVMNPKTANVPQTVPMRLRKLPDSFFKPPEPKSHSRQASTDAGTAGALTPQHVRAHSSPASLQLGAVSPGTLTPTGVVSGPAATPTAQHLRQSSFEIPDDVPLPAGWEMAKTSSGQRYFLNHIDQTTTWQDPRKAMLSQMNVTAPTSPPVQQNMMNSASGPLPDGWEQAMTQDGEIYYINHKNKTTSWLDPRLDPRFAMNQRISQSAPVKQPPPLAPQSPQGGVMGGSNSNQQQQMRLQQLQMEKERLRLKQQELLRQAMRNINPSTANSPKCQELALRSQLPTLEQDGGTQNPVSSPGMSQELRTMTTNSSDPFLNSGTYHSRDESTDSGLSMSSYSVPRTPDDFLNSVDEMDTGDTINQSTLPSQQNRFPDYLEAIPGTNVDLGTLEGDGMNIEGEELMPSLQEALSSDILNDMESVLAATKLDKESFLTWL

[2] = molecular target: T2, HA-Amot-p130^S176A (mouse (by the paper's numbering: Ser176 in mouse, Ser175 in human)) (UniProt Q8VHG2); assay: as above
T2 sequence: T1 sequence with S176A

[3] = molecular target: T3, HA-Amot-p130^S176E (mouse (by the paper's numbering: Ser176 in mouse, Ser175 in human)) (UniProt Q8VHG2); assay: as above
T3 sequence: T1 sequence with S176E

[4] = molecular target: T4, Amot-p130 phosphorylated at S176 (mouse (by the paper's numbering: Ser176 in mouse, Ser175 in human)) (UniProt Q8VHG2); assay: co-IP; HEK293-shAmot cells transfected with Amot-p130; IPs with antibodies to phospho-Amot (Ser176), YAP or Merlin, immunoblot
T4 sequence (chain, phosphoserine at 176): T1 sequence

[5] = molecular target: Flag-tagged Patj (UniProt Q8NI35); assay: co-IP; HEK293-shAmot cells co-transfected with an Amot-p130 allele (WT, S176A, S176E or PY motif mutants) and tagged partners; total RIPA lysate, IP with tag or protein antibodies overnight, immunoblot

Molecule: Flag-tagged Merlin (from UniProt P35240 1-595)
binding [1]: binds
binding [2]: binds
binding [3]: binds

Molecule: Merlin (endogenous) (from UniProt P35240 1-595)
binding [4]: binds

Molecule: YAP (endogenous) (from UniProt P46937 1-504)
binding [4]: binds

B2: HA-Amot-p130^S176A (protein, UniProt Q8VHG2 1-1126)
chain: T1 sequence with S176A
binding [5]: no binding

Now from value to molecule:

binding [3]: binds
Molecule: Flag-tagged Patj (from UniProt Q8NI35 1-1801)

binding [5]: binds
B1: HA-Amot-p130 (protein, UniProt Q8VHG2 1-1126)
chain: T1 sequence
